# PubChem BioAssay AID493246, Drosophila RNAi Screening Center, 2011
# Test: 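Genes fly cells need to grow and stay alive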 (primary screen)
# System: Drosophila Kc and S2R+ cells
# Reagents: long dsRNA against Drosophila genes
# Measured: 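Cell number per well after knock-down, printed as raw plate values; calls were based on per-plate z-scores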
# Direction: Kc cell number and S2R+ cell number: higher = more cells remaining
# Rule for the call: 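Active when the per-plate z-score of cell number is 3 or more in the direction of fewer cells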
# In all, the deposit lists about 21,000 reagents; this is an unselected part of those that have a named target and a result. In the full data, 429 (2%) were called active. 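Values are raw and not normalised between plates; calls rest on per-plate z-scores that were not deposited.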 A plus sign joins genes that one reagent is predicted to hit. The record does not give: the amount of reagent, the time to read-out.
target,dsRNA,"Kc cell number, rep 1","Kc cell number, rep 2","S2R+ cell number, rep 1","S2R+ cell number, rep 2",Outcome
swm,DRSC02012,1.55e6,1.56e6,1.11e6,1.25e6,inactive
ImpE2,DRSC08665,1.32e6,1.39e6,1.11e6,1.10e6,inactive
CG30031 + deltaTry + gammaTry,DRSC07622,1.75e6,1.77e6,1.21e6,1.36e6,inactive
CG31751,DRSC02464,1.59e6,1.61e6,1.20e6,3.03e5,inactive
CG31751,DRSC02465,1.56e6,1.59e6,1.32e6,2.80e5,inactive
Hmbs,DRSC08632,1.37e6,1.45e6,1.19e6,1.12e6,inactive
UK114,DRSC01973,1.51e6,1.60e6,1.21e6,1.34e6,inactive
lncRNA:CR32658,DRSC19402,1.67e6,1.53e6,1.11e6,1.23e6,inactive
Ir94h,DRSC15232,1.44e6,1.43e6,1.09e6,1.15e6,inactive
CG16700,DRSC19755,1.44e6,1.45e6,1.15e6,1.27e6,inactive
CG8673,DRSC03105,1.51e6,1.58e6,1.19e6,1.30e6,inactive
CG3528,DRSC00611,1.44e6,1.53e6,1.05e6,1.20e6,inactive
Aprt,DRSC08139,1.47e6,1.28e6,9.40e5,1.11e6,inactive
CG18748,DRSC15385,1.59e6,1.80e6,1.38e6,1.53e6,inactive
capu,DRSC00208,1.48e6,1.49e6,1.02e6,1.15e6,inactive
capu,DRSC00209,1.51e6,1.51e6,9.75e5,1.05e6,inactive
capu,DRSC00434,1.69e6,1.69e6,1.25e6,1.42e6,inactive
capu,DRSC00807,1.46e6,1.43e6,9.48e5,9.59e5,inactive
fiz,DRSC20188,6.21e5,,8.14e5,,inactive
CG11007,DRSC06023,1.31e6,1.37e6,1.14e6,1.19e6,inactive
HmgD,DRSC04619,1.08e6,1.08e6,6.43e5,5.34e5,active
CG13059,DRSC09942,1.46e6,1.58e6,1.33e6,1.51e6,inactive
CG34163,DRSC01219,1.65e6,1.74e6,1.08e6,1.19e6,inactive
Rbfox1,DRSC09034,1.37e6,1.34e6,9.85e5,1.11e6,inactive
Rbfox1,DRSC10157,1.02e6,7.05e5,4.08e5,5.49e5,active
Rbfox1,DRSC10320,1.56e6,1.54e6,1.07e6,1.30e6,inactive
